# Values joined by “and” are separate entries in the source; they are usually repeats but may differ in a detail not shown here. Identical values can stand only once. This is one part of the list. Single wells; the ratio to wells without odorant was worked out here, and repeats agree poorly.
# System: pseudo clone 1419
# Test: odorant receptor activation (CRE luciferase / Renilla) (fold of no-odor wells); higher = more activation
# Conditions: 100 µM
row,SMILES,odorant receptor activation
1,CC(C)(C)c1ccc(CCC=O)cc1 [bourgeonal],0.173
2,O=CCc1ccccc1 [phenyl acetaldehyde],2.08
3,CC12C=CCC1C1CCC3=CC(=O)CCC3(C)C1CC2 (configuration not stated) [androstadienone],0.883
4,CCCCCCOC(=O)CCC [hexyl butyrate],0.776
5,CC/C=C\CCO [cis-3-hexen-1-ol],0.286
6,CC(=O)c1ccccc1 [acetophenone],1.13
7,CCCCCOC(C)=O [n-amyl acetate],1.06
8,CC1COCc2cc3c(cc21)C(C)(C)C(C)C3(C)C (configuration not stated) [galaxolide],2.93
9,CC12C=CCC1C1CCC3CC(=O)CCC3(C)C1CC2 (configuration not stated) [androstenone],0.98
10,COc1ccccc1O [guaiacol],0.78
11,O=C1CCCCC1 [Cyclohexanone],1.11
12,CCCCCCCC=CC=O [2-decenal],0.766
13,C=CC(C)(O)CCC=C(C)C (configuration not stated) [linalool],0.95
14,CCCCCCCCCCC=O [undecanal],1.44
15,CC(C)=CCCC(C)=CC=O [citral],0.332
16,CCCCCCCCOC(C)=O [octyl acetate],1.04
17,CC(C)C=O [isobutyraldehyde],0.961
18,CCCCCCC=O [heptaldehyde],1.14 and 0.686
19,CC(=O)OCC=C(C)CCC=C(C)C [geranyl acetate],0.946
20,CCCCO [1-butanol],0.798
21,"CC1CCC(C(C)C)C(O)C1 (single isomer, unassigned; (+)) [(+)-menthol]",0.9
22,CC(=O)OC(C)(C)C1CC=C(C)CC1 (configuration not stated) [terpinyl acetate],1.4
23,CC(C)CCC(=O)O [4-methylvaleric acid],1.17
24,CC12CCC(C1)C(C)(C)C2=O (configuration not stated) [fenchone],0.903
25,COC(=O)c1ccccc1O [methyl salicylate],1.59
26,CC=Cc1ccc(O)c(OC)c1 [isoeugenol],1.33
27,C=CCc1ccc(O)c(OC)c1 [eugenol],1.95 and 1.23
